Measurements: the supplement of paper PMC3334620
In all, about 33,000 sequences were measured (“E-score (-0.5 to 0.5)”: median about -0.0059, highest 2% from about 0.26 on). The list shows a part of the results.

What follows are sequences tested against T1, Cin5 (UniProt P40917) (assay: PBM E-score (8-mer binding enrichment) (E-score (-0.5 to 0.5)); higher = stronger / more preferred TF binding). Details: protein concentration: 100 nM; construct: GST-full length.
T1 sequence: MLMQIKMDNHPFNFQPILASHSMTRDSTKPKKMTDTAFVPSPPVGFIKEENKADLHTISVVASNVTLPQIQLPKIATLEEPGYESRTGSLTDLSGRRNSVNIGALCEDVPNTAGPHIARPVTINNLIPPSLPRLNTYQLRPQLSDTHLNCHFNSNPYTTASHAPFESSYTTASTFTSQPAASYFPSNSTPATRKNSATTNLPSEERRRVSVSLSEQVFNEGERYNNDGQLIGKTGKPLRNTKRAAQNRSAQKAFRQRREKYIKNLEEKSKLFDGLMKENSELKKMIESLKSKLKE
Method in brief: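 PURExpress in vitro transcription/translation supplied GST-tagged yeast transcription factors, either full-length or DNA-binding domain. Applied at about 100-200 nM to universal all-10-mer Agilent arrays double-stranded by primer extension, the bound protein was detected with fluorescent anti-GST. E-scores, modified Wilcoxon-Mann-Whitney statistics, were given by the Universal PBM Analysis Suite to ungapped eight-base words pooled with their reverse complements after masliner normalisation.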

Sequence	PBM E-score
ATCGCCGA	-0.0867
AAAGATTT	0.0951
CATTCGCC	-0.0624
CGTTATCC	0.0746
CAACTCTG	-0.112
AACAGACC	0.0233
CTCGGATC	0.0635
CCTGACCG	-0.247
ACGCGGTA	-0.114
GTTCAGTA	0.0391
GCATATAC	-0.0829
CCGGTGCC	-0.301
AGGCTGTG	-0.16
ACCTAGCC	-0.273
AACCCGGA	0.0215
ATGCCATC	0.091
GGGCAAAA	0.106
ACGGGCAT	-0.0832
GCAGGGAC	-0.163
GAACGCTA	-0.125
GCTAGAGC	-0.243
GTATAGCA	0.165
CCTTCCAA	0.0613
TACACCTA	0.173
CATAGGCG	-0.0328

Sequence	PBM E-score
CACAACAC	0.107
CAGTCCGG	-0.322
ATTGCTCC	-0.049
CTACGGTC	-0.216
AAATCATT	1e-05
CTCCATTC	-0.0433
CACAGTAC	0.00208
CCCTTTTC	-0.0842
AGAATCCC	0.0372
CTCGGGGC	-0.098
AGCTTCGA	-0.144
AGGATTCG	0.0212
CATGAGTA	-0.00989
TCTGGACA	-0.0707
ACTGTCTC	-0.0312
ACTTAAGT	0.012
ATTGTGCG	-0.0502
ACAGAGCG	-0.195
GAGGGGAC	-0.0152
CATTACCG	-0.0622
CGATTAAC	0.0945
ACACATCA	0.0126
ACAGACCG	0.0357
CCCGTCTA	-0.0276
AATGGCAG	0.0479

Sequence	PBM E-score
ACATAACA	0.286
AGGTGACA	0.00628
ATATTTGA	0.22
ATGCCTTA	-0.11
AGTCACCA	-0.0986
AATCATGT	0.227
GGTCCTCA	-0.0981
GCCCATGA	-0.0238
GCACGCCC	-0.145
GAGTTTGC	-0.0356
CTAAGCTC	-0.122
ATGGTGCG	-0.027
ACGGCCCT	-0.194
CACTTAAG	0.0422
CTCAACAG	-0.128
CTATCTTA	0.106
GCTAAATA	0.124
CCGGGTGC	-0.186
CAAATGTA	0.268
GACGATTA	0.151
CCGACCCG	-0.0535
GGAGTTAC	0.0554
AATCACAC	0.0817
GAAGACGC	-0.118
CACCCCGG	-0.162

Sequence	PBM E-score
AGGTTACT	-0.0428
CAGCGGAA	0.0943
CAATATCA	0.108
GTCAGAAC	-0.0522
GCGGAGTA	0.0459
ACCCGGGA	0.00162
CACAATCG	-0.0887
CCGCTAAC	0.0261
GAAACAGC	-0.0885
TAGGCGCA	-0.0242
CCATGGCA	-0.0412
CCTGCTAC	0.0069
ACAGAACA	0.136
ACTCCGCA	-0.106
AATGGGCC	-0.094
ATCACAGC	0.0907
CCCTGATC	-0.13
CCCATCAC	-0.103
CGAGAAGC	0.0379
CTGTCATA	0.0932
ACCGGTCG	-0.231
AGCGGAAC	0.048
GGACAATA	0.122
ATAGCGGA	0.0453
CTAGCTTA	0.256

Sequence	PBM E-score
AGAAAAAT	0.154
ACTCGAGG	-0.0419
CCTTGCCG	-0.0854
GACAGCGC	-0.101
GACGGAAC	0.0876
TTATCCAA	0.178
AGGTCTGA	-0.073
AGCAGTGG	-0.0673
CTGCGACC	-0.211
AACGCCGA	-0.12
AGAATTGA	0.0267
GTTAGTGA	0.047
ACGTGTGC	-0.0913
AAAGTCGG	-0.115
AGAACAAG	0.198
AATGATCC	-0.0795
AAGAGGCA	-0.125
AAGTAGCT	-0.0241
GTTGTATA	0.133
CACGTGCC	-0.0768
AGTTAGAG	-0.0783
CTGTTTCC	-0.16
CCAAGCAA	0.0163
AGACTCTG	-0.00683
AAAAATGT	0.0261

Shown comma-delimited: entries from further up
Sequence,PBM E-score
CAGCGGAA,0.0943
CAATATCA,0.108
GTCAGAAC,-0.0522
GCGGAGTA,0.0459
ACCCGGGA,0.00162
CACAATCG,-0.0887
CCGCTAAC,0.0261
GAAACAGC,-0.0885
TAGGCGCA,-0.0242
CCATGGCA,-0.0412
CCTGCTAC,0.0069
ACAGAACA,0.136
ACTCCGCA,-0.106
AATGGGCC,-0.094
ATCACAGC,0.0907
CCCTGATC,-0.13
CCCATCAC,-0.103
CGAGAAGC,0.0379
CTGTCATA,0.0932
ACCGGTCG,-0.231
AGCGGAAC,0.048
GGACAATA,0.122
ATAGCGGA,0.0453
CTAGCTTA,0.256
AGAAAAAT,0.154
ACTCGAGG,-0.0419
CCTTGCCG,-0.0854
GACAGCGC,-0.101
GACGGAAC,0.0876
TTATCCAA,0.178
AGGTCTGA,-0.073
AGCAGTGG,-0.0673
CTGCGACC,-0.211
AACGCCGA,-0.12
AGAATTGA,0.0267
GTTAGTGA,0.047
ACGTGTGC,-0.0913
AAAGTCGG,-0.115
AGAACAAG,0.198
AATGATCC,-0.0795
AAGAGGCA,-0.125
AAGTAGCT,-0.0241
GTTGTATA,0.133
CACGTGCC,-0.0768
AGTTAGAG,-0.0783
CTGTTTCC,-0.16
CCAAGCAA,0.0163
AGACTCTG,-0.00683
AAAAATGT,0.0261

Next results follow:

Sequence	PBM E-score
GCCATAGC	-0.158
CCTGTAAC	0.0246
AAATCATC	0.135
AGGAAATC	0.128
ACGTTGCG	0.00162
CCACAAAA	0.139
CCCAACAC	-0.0295
ACTATAAT	0.27
CACTATGA	0.0374
ATCAAACG	0.0519
GCGATCGA	0.246
ACTTCGGC	-0.0187
ATTGAAAA	0.235
GCTAATTA	0.243
ATCCCGAT	0.152
ACCCTTCC	-0.0557
CAGATTCA	-0.0836
GTGGTAAA	-0.0874
GATTCTGC	0.118
ACCGTGCA	-0.0977
CCAGAATA	0.0691
AAAAACTC	-0.0235
AACATCTA	-0.0777
CCAACTAA	0.186
CACGGTCC	-0.335

Sequence	PBM E-score
CCACTTCA	-0.0834
ATTACTGC	0.22
GTAGAGAA	0.0426
AGCTCCCA	-0.153
CGGTTTAA	-0.0878
CGTTAGGA	0.0891
CACTATTA	0.178
CATCAGAC	0.0451
ACGCCCAT	0.0611
ACCCATGG	-0.0337
CGATATTA	0.355
GCAGAAAA	0.124
CCATGAGG	-0.119
CGGAAGAC	-0.0333
CTTTAGCA	-0.128
GCCTTAAA	0.0308
ACATGTGG	0.123
AAGTTGGA	0.0299
CGCGGCCC	0.0293
GAGCTGAC	0.115
CTTTCATC	0.0295
TCATACGA	0.108
